Source: patent publication US20090209457A1 (Affymax, Inc., priority 2008, published 2009)

System: patients with anti-EPO antibody-mediated PRCA
Assay: Open-label clinical study in patients with anti-EPO antibody-mediated PRCA
Type: in vivo, human
Method: An open-label, prospective, non-randomized study was conducted to investigate the ability of Peptide I to correct anemia in patients with PRCA that is characterized by anti-EPO antibodies. The pre-specified primary objective was to determine if Peptide I could increase and maintain hemoglobin levels above 11 g/dL (consistent with both U.S.[KDOQI Clinical Practice Guidelines and Clinical Practice Recommendations for Anemia in Chronic Kidney Disease (2006) Am. J. Kidney Dis. 47 (Suppl 3):S11-S145.] and European Guidelines [Locatelli F, et al. (2004) Nephrol. Dial. Transplant 19 (Suppl 2): ii1-47.]) without the need for red cell transfusions in patients with anti-EPO antibody-mediated PRCA during 6 months of treatment. The effect of Peptide I on reducing red cell transfusions, the time required to correct anemia in the absence of transfusions, dose requirements, and safety were also assessed.
Patients older than 18 years of age were eligible for inclusion if they had CKD (with or without the need for dialysis) and PRCA or red cell hypoplasia due to anti-EPO antibodies. Patients were required to have a documented history of: (1) a decrease in hemoglobin concentration while receiving a stable or increased dose of a protein-based ESA, or red cell transfusion dependency; (2) reticulocyte counts of <30×10^9/L; (3) a bone marrow examination showing severe erythroid hypoplasia or aplasia; and (4) a confirmed positive test for anti-EPO antibodies. Patients may have received immunosuppressive therapy previously, but these medications were to be discontinued for at least three months prior to enrollment. At the time of enrollment, patients had to either be transfusion-dependent, or have a hemoglobin concentration persistently below 11 g/dL without ESA therapy. The presence of another hematological disorder, another known cause of PRCA, and current treatment with ESA or immunosuppressive therapy represented the major exclusion criteria. […]

PEGylated homodimer of peptide monomers (AcG)GLYACHMGPIT(1-nal)VCQPLR(MeG)K (SEQ ID NO: 2), EPO-R agonist [Peptide I]
anti-EPO antibodies over the course of the study (data not shown): declined over the course of the study in most patients | median dose at the time of hemoglobin response (human, in vivo): 0.08 mg/kg per month | patients remaining anti-EPO antibody-positive (human, in vivo): Seven of 10
